Measurements reported in patent US4278596A, “Analgesic pentapeptides” (American Home Products Corporation, priority 1978, dated 1981).
Part of at least one peptide drawing is inferred or uncertain, most often the ends.

Test system: rats
Assay: rat-tail flick method of D'Amour and Smith
Assay type: in vivo
Conditions: for dose producing significant analgesia (as low as): rats
Description: In this procedure, a representative polypeptide of this invention, N-Me-Tyr-D-Ser-Gly-N-Me-Phe-D-Ser-NH2,acetate, produced significant analgesia in rats upon administration at a dose as low as 0.1 mg/kg. intravenously, and 0.5 mg/kg. subcutaneously.
When N-Me-Tyr-D-Ser-Gly-N-Me-Phe-D-Ser-NH2, acetate was tested in the rat-tail flick procedure of D'Amour and Smith (supra), the following results were obtained: […]

CN[C@@H](Cc1ccc(O)cc1)C(=O)N[C@H](CO)C(=O)NCC(=O)N(C)[C@@H](Cc1ccccc1)C(=O)N[C@H](CO)C(N)=O [N-Methyl-Tyrosyl-D-Serylglycyl-N-MethylPhenylalanyl-D-Serinamide. Acetate]
No. Showing Analgesia/No. Tested (0.1 mg/kg. i.v., 15 minutes): 3/6 | No. Showing Analgesia/No. Tested (0.1 mg/kg. i.v., 30 minutes): 5/6 | No. Showing Analgesia/No. Tested (0.1 mg/kg. i.v., 60 minutes): 5/6 | No. Showing Analgesia/No. Tested (0.5 mg/kg. s.c., 30 minutes): 2/6 | No. Showing Analgesia/No. Tested (0.5 mg/kg. s.c., 60 minutes): 2/6 | No. Showing Analgesia/No. Tested (0.5 mg/kg. s.c., 90 minutes): 1/6 | No. Showing Analgesia/No. Tested (0.5 mg/kg. s.c., 120 minutes): 1/6 | No. Showing Analgesia/No. Tested (1.0 mg/kg. i.v., 15 minutes): 6/6 | No. Showing Analgesia/No. Tested (1.0 mg/kg. i.v., 30 minutes): 6/6 | No. Showing Analgesia/No. Tested (1.0 mg/kg. i.v., 60 minutes): 6/6 | No. Showing Analgesia/No. Tested (1.0 mg/kg. s.c., 30 minutes): 6/6 | No. Showing Analgesia/No. Tested (1.0 mg/kg. s.c., 60 minutes): 6/6 | No. Showing Analgesia/No. Tested (1.0 mg/kg. s.c., 90 minutes): 6/6 | No. Showing Analgesia/No. Tested (1.0 mg/kg. s.c., 120 minutes): 5/6 | No. Showing Analgesia/No. Tested (5.0 mg/kg. i.v., 15 minutes): 4/4 | No. Showing Analgesia/No. Tested (5.0 mg/kg. i.v., 30 minutes): 3/3 | No. Showing Analgesia/No. Tested (5.0 mg/kg. i.v., 60 minutes): 3/3 | dose producing significant analgesia (as low as) (intravenously): 0.1 mg/kg | dose producing significant analgesia (as low as) (subcutaneously): 0.5 mg/kg
